# These are yes or no findings as the source states them, for the method shown. Binding seen in cells or lysates may run through a third protein. Some binding calls cover weakened binding; strength is not graded here.
# Sequences of proteins named here, by UniProt entry; tags and fusion partners are left off.
# UniProt Q99P99: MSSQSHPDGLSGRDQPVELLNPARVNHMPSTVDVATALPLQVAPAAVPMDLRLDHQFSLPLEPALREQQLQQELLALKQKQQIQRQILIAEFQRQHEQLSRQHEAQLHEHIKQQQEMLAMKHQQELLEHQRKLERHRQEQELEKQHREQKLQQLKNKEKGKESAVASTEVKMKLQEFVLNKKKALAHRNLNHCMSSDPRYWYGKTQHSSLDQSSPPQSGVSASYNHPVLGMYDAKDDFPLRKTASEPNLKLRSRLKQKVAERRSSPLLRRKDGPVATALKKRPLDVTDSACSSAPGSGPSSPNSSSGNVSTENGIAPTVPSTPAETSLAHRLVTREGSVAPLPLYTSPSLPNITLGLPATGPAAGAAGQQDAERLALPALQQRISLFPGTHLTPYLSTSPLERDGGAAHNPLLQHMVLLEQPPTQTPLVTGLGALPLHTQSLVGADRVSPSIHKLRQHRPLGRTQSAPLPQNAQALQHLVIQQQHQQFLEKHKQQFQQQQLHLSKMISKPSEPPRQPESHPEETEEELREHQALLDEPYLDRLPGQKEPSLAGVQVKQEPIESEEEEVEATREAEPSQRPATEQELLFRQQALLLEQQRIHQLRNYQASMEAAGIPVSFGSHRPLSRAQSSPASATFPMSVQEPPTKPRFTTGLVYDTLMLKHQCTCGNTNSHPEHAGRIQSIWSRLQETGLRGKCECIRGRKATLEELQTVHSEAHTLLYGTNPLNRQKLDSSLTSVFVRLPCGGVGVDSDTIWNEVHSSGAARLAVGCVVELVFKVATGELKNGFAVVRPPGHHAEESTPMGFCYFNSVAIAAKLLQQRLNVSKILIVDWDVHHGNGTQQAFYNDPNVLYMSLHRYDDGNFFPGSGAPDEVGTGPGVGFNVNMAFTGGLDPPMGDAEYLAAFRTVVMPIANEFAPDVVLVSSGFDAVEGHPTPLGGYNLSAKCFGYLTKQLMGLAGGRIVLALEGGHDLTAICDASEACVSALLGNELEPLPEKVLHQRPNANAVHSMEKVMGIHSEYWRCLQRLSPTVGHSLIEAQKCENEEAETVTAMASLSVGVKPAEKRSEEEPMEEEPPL
# UniProt O89038: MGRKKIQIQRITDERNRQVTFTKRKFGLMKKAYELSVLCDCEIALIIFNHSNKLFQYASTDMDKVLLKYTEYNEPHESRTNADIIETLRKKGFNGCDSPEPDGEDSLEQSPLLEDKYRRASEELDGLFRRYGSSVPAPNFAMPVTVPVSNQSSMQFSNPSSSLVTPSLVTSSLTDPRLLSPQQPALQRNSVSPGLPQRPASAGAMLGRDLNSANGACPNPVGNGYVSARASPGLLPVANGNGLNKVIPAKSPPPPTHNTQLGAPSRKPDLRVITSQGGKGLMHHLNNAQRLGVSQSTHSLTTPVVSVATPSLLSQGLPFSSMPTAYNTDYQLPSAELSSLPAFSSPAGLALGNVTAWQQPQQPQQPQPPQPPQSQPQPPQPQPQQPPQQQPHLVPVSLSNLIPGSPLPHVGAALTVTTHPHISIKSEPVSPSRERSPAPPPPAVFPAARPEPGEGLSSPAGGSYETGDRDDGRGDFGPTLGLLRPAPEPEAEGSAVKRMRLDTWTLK
# Tests used:
# [1] = target: HDAC4 (rat (endogenous in soleus muscle)) (UniProt Q99P99); experiment: condition: only control group (no hindlimb unloading); co-IP; lysate of soleus muscle of control rats (Con, no unloading); IP with rabbit polyclonal anti-HDAC4, blot for MEF2-D; same buffer; non-specific IgG as negative control
# [2] = target: HDAC4 (rat (endogenous in soleus muscle)) (UniProt Q99P99); experiment: co-IP; lysate of soleus muscle of rats after 24 h of hindlimb unloading (HU); IP with rabbit polyclonal anti-HDAC4 on coupling resin overnight at 4 °C, blot for MEF2-D; lysis buffer 0.025 M Tris, 0.15 M NaCl, 0.001 M EDTA, 1% NP-40, 5% glycerol, pH 7.4; non-specific IgG as negative control
# [3] = target: HDAC4 (rat (endogenous in soleus muscle)) (UniProt Q99P99); experiment: condition: only 24 h of hindlimb unloading with Tasquinimod treatment (10 mg/kg/day); co-IP; lysate of soleus muscle of rats after 24 h of hindlimb unloading with Tasquinimod treatment (HU + T, 10 mg/kg/day orally, 7 days before and during HU); IP with rabbit polyclonal anti-HDAC4, blot for MEF2-D; same buffer; non-specific IgG as negative control
substance,measurement,setting,value
MEF2-D (from UniProt O89038 1-507),binding,[1],no binding
same,binding,[2],binds
same,binding,[3],no binding

# — paper PMC8617770
